Some of the results follow.
How the values were obtained:
Experiment in all cases: log2 fold change, soluble protein after heating vs DMSO (PISA); higher = thermal stabilisation; K562 cells, 10 uM, 30 min; active = over 0.2 and 3.5 SD of the protein, either way, in both replicates (recomputed)
saracatinib = compound: CN1CCN(CCOc2cc(OC3CCOCC3)c3c(Nc4c(Cl)ccc5c4OCO5)ncnc3c2)CC1 [saracatinib]
In short: (§1)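 K562 cells at 2×10^6 cells/mL were treated with 10 μM compound for 30 min. Aliquots were heated for 3 min across 48°C-58°C, pooled, and extracted in PBS with 0.5% NP-40 at 4°C; soluble protein was the supernatant after 21,000xg for 90 min. Soluble protein was quantified by TMTpro 16plex LC-MS/MS with channel sums equalised, and reported as log2 fold change in thermal stability against DMSO controls, with values from duplicates.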

By UniProt entry, the sequences of proteins in these tests, tags left out. Where a name states a change or a piece, a line headed by the entry shows the natural chain unless it says otherwise.
UniProt P08621, whole entry, looked up: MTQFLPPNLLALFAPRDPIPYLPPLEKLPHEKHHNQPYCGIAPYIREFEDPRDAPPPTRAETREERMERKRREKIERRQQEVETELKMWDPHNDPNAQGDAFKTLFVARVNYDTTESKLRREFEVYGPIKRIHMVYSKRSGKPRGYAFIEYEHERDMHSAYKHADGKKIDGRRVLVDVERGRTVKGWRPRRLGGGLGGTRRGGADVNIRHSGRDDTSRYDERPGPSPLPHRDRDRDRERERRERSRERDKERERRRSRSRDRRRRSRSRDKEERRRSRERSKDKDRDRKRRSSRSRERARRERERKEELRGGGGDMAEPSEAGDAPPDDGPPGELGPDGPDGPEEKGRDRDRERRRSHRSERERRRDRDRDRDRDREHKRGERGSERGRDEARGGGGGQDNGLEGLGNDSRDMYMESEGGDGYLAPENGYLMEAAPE
UniProt P62306, whole entry, looked up: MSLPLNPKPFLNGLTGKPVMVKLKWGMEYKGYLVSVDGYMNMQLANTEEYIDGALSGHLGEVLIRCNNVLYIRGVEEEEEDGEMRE
UniProt Q8TAQ2, whole entry, looked up: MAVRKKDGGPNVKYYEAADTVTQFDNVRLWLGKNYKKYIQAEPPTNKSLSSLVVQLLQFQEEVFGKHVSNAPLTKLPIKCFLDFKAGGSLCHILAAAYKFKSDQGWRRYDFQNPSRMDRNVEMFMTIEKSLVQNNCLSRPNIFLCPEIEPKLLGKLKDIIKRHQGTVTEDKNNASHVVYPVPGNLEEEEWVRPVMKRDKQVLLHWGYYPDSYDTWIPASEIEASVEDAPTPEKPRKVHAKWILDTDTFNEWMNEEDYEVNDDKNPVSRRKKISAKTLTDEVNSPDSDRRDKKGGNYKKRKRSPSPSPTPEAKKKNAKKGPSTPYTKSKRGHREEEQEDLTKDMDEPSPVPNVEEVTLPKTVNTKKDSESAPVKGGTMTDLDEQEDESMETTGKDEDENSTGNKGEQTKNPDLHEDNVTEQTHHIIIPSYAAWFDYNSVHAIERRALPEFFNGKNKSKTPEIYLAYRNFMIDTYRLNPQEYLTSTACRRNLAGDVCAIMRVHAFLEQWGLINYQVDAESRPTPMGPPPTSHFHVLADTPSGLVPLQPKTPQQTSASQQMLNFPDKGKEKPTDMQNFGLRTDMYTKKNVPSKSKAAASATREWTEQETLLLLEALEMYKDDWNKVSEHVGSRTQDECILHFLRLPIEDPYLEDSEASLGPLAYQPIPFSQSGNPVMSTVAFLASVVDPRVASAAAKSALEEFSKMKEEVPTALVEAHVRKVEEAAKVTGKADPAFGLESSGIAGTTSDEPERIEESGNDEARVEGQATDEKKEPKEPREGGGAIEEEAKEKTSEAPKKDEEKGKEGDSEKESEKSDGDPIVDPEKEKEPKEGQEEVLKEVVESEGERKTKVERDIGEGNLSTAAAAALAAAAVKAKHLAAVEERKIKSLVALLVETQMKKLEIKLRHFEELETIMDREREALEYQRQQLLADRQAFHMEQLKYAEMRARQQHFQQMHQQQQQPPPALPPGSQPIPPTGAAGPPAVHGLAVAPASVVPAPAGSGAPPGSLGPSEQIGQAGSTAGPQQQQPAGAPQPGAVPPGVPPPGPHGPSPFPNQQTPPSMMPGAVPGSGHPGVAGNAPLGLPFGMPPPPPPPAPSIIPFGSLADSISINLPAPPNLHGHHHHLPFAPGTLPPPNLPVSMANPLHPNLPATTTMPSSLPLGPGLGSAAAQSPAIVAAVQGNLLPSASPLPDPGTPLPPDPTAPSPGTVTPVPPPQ
UniProt Q99717: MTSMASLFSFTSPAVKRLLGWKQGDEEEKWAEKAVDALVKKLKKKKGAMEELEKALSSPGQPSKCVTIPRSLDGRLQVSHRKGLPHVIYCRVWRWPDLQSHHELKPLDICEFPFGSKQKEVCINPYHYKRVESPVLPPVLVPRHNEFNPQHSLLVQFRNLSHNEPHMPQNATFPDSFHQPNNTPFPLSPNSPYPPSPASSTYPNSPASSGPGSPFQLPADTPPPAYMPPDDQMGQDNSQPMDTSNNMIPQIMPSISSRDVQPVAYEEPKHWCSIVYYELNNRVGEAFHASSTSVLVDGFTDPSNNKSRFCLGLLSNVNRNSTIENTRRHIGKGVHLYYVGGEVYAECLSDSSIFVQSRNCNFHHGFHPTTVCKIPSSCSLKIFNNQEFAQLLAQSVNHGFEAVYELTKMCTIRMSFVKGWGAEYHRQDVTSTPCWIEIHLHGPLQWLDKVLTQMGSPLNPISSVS
UniProt P57768: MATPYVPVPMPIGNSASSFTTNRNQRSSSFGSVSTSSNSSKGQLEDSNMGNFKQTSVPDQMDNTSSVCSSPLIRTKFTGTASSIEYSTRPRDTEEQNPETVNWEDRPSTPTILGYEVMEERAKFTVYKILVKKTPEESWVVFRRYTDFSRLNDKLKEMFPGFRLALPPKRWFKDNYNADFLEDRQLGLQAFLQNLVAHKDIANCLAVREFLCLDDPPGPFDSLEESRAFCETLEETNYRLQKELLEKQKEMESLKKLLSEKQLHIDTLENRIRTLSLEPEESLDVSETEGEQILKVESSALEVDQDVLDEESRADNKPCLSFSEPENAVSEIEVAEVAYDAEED
UniProt P62308, whole entry, looked up: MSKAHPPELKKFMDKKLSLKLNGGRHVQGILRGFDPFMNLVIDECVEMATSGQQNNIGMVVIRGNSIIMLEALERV
UniProt Q13485: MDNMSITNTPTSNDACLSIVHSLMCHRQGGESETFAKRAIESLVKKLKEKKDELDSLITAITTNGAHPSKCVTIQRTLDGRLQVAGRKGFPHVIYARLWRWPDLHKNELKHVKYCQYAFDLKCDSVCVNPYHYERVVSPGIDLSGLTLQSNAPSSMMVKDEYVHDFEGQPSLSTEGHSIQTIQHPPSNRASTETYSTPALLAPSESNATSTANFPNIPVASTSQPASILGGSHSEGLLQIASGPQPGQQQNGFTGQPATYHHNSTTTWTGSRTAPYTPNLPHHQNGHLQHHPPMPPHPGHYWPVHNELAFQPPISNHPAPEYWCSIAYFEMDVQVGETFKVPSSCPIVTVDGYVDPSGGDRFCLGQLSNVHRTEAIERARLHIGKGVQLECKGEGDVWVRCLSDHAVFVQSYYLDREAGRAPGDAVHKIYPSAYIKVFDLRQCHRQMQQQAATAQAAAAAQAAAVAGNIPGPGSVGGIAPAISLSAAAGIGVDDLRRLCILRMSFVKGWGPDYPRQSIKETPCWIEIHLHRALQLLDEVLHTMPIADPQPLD
UniProt Q96SB8: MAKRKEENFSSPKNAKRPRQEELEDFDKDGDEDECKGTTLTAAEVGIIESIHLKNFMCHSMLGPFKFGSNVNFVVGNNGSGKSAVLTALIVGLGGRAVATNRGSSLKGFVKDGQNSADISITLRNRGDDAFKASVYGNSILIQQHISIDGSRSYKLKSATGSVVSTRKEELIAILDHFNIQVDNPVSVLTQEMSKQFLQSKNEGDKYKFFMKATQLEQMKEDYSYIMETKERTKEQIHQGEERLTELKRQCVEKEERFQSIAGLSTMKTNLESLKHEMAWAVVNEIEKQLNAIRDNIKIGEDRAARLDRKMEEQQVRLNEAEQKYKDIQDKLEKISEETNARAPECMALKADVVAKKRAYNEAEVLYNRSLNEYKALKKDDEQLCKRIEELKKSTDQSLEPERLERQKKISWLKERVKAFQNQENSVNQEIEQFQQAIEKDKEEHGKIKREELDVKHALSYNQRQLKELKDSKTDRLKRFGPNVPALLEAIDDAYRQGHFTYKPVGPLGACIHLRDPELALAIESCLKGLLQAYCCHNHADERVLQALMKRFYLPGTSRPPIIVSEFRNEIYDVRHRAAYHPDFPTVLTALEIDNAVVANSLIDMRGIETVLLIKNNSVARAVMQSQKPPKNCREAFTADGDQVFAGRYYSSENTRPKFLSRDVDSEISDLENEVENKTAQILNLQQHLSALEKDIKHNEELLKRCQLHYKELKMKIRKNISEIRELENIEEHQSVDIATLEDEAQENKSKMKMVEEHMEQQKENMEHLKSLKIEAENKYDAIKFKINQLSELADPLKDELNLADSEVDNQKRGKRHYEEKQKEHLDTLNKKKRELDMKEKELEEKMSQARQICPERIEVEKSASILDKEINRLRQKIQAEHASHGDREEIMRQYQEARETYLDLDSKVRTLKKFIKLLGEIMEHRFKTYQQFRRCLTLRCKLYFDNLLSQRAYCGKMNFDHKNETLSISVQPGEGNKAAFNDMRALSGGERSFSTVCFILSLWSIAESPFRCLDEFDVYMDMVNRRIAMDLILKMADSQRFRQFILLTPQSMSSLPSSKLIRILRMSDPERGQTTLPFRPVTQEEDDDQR
UniProt Q96EX1: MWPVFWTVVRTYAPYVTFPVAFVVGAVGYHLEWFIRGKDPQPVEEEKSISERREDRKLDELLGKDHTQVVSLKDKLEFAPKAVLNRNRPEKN
UniProt Q14BN4: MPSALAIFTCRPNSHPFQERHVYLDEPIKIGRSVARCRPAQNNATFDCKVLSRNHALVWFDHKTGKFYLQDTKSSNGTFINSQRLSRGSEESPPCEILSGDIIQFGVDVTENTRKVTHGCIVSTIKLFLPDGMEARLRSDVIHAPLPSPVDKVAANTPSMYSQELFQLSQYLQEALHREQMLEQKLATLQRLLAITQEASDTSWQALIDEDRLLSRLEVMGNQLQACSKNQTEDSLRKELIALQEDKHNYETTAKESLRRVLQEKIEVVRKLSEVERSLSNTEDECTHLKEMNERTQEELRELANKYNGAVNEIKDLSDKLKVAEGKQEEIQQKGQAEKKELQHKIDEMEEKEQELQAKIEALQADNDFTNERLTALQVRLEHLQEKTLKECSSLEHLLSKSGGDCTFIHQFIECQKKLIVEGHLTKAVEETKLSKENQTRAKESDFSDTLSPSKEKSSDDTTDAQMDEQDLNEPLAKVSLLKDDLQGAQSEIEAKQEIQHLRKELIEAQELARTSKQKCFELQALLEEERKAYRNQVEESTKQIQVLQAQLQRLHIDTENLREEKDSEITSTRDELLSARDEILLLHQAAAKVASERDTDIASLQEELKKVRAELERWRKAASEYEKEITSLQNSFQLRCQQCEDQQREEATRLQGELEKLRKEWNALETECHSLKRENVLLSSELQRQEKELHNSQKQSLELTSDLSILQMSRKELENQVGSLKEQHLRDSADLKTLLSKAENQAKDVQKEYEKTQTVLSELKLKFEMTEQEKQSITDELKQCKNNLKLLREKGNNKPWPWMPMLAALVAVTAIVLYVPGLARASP
UniProt Q0VAQ4: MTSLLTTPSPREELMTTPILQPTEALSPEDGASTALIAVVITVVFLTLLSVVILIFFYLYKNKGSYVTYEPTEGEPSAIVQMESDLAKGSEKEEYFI
UniProt P62304, whole entry, looked up: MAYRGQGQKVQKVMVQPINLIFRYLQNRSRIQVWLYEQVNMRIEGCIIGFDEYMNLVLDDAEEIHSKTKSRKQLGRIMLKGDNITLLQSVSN
UniProt Q9UPR3: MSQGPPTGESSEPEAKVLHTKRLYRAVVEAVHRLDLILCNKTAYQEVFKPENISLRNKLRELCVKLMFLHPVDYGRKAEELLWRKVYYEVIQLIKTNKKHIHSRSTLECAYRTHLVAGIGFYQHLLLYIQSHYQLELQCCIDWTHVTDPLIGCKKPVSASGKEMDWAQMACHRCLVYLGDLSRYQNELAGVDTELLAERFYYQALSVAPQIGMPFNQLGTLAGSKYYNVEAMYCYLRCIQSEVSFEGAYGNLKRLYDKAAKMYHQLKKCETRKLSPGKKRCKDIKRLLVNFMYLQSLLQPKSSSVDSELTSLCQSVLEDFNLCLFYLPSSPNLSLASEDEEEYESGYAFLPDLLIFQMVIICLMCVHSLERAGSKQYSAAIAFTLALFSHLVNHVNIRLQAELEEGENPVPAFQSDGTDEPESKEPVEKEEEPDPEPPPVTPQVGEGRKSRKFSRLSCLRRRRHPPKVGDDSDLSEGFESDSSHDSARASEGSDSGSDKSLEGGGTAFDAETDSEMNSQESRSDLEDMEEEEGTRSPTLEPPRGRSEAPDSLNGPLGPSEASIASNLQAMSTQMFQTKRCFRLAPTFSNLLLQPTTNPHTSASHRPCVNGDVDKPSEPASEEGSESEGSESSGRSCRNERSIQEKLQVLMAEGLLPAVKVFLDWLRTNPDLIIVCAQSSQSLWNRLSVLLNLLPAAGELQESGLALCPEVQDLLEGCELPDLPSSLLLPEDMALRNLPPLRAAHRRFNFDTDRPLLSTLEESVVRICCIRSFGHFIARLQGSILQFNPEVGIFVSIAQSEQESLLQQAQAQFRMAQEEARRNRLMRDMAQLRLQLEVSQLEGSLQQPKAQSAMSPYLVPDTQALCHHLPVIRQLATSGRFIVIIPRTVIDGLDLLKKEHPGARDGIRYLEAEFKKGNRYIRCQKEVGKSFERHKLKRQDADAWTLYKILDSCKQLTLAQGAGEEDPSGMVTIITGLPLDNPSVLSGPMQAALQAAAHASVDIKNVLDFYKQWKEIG
UniProt O95295: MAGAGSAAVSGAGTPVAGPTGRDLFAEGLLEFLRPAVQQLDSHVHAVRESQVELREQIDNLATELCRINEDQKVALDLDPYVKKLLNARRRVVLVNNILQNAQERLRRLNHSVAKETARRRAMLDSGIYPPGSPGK

sotrastaurin = compound: CN1CCN(c2nc(C3=C(c4c[nH]c5ccccc45)C(=O)NC3=O)c3ccccc3n2)CC1 [sotrastaurin]
In short: as §1

alvocidib = compound: CN1CC[C@H](c2c(O)cc(O)c3c(=O)cc(-c4ccccc4Cl)oc23)[C@H](O)C1 [alvocidib]
In short: as §1

Tubastatin A = compound: CN1CCc2c(c3ccccc3n2Cc2ccc(C(=O)NO)cc2)C1 [Tubastatin A]
In short: as §1

[1] = compound: CNC(=O)C1=CC=CC=C1NC2=NC(=NC=C2Cl)NC3=C(C=C(C=C3)N4CCOCC4)OC
In short: as §1

defactinib = compound: CNC(=O)c1ccc(Nc2ncc(C(F)(F)F)c(NCc3nccnc3N(C)S(C)(=O)=O)n2)cc1 [defactinib]
In short: as §1

rucaparib = compound: CNCc1ccc(-c2[nH]c3cc(F)cc4c3c2CCNC4=O)cc1 [rucaparib]
In short: as §1

[2] = compound: CNc1nc(-c2ccc3c(N)n[nH]c3c2)cc(N2C[C@@H](C(=O)NC3CCCCC3)CC[C@H]2C)n1
In short: as §1

encorafenib = compound: COC(=O)N[C@@H](C)CNc1nccc(-c2cn(C(C)C)nc2-c2cc(Cl)cc(NS(C)(=O)=O)c2F)n1 [encorafenib]
In short: as §1

[3] = compound: COC(=O)[C@H](CCSC)NC(=O)C1=C(C=C(C=C1)NC[C@H](CS)N)C2=CC=CC=C2
In short: as §1

Measured: log2 fold change

SNAP23 (UniProt O00161)
inactive: saracatinib -0.007 | sotrastaurin 0.053 | alvocidib 0.053 | Tubastatin A -0.016 | [1] -0.003 | defactinib 0.007 | rucaparib -0.036 | [2] 0.005 | encorafenib 0.017 | [3] 0.026

SMC4 (UniProt Q9NTJ3)
inactive: saracatinib -0.017 | sotrastaurin -0.05 | alvocidib -0.015 | Tubastatin A 0.03 | [1] 0.067 | defactinib -0.038 | rucaparib 0.078 | [2] 0.042 | encorafenib 0.069 | [3] -0.047

SPAG5 (UniProt Q96R06)
inactive: saracatinib -0.146 | sotrastaurin -0.165 | alvocidib 0.048 | Tubastatin A 0.149 | [1] 0.009 | defactinib 0.054 | rucaparib 0.458 | [2] 0.169 | encorafenib 0.211 | [3] -0.01

SP6 (UniProt Q3SY56)
inactive: saracatinib 0.046 | sotrastaurin 0.042 | alvocidib 0.049 | Tubastatin A 0.146 | [1] -0.11 | defactinib -0.121 | rucaparib 0.091 | [2] 0.073 | encorafenib -0.136 | [3] 0.14

SNRNP70 (UniProt P08621)
inactive: saracatinib -0.028 | sotrastaurin 0.093 | alvocidib 0.247 | Tubastatin A 0.039 | [1] -0.086 | defactinib 0.488 | rucaparib 0.292 | [2] -0.055 | encorafenib 0 | [3] -0.028

SOD1 (UniProt P00441)
inactive: saracatinib 0.031 | sotrastaurin 0.079 | alvocidib 0.01 | Tubastatin A 0.06 | [1] -0.002 | defactinib -0.001 | rucaparib -0.066 | [2] 0.047 | encorafenib 0.023 | [3] 0.024

SNAP91 (UniProt O60641)
inactive: saracatinib 0.092 | sotrastaurin -0.026 | alvocidib -0.012 | Tubastatin A -0.013 | [1] -0.025 | defactinib -0.03 | rucaparib -0.026 | [2] -0.026 | encorafenib 0.106 | [3] 0.073

SNRPF (UniProt P62306)
inactive: saracatinib -0.024 | sotrastaurin -0.055 | alvocidib 0.107 | Tubastatin A -0.019 | [1] 0.003 | defactinib 0.122 | rucaparib 0.227 | [2] -0.075 | encorafenib 0.06 | [3] 0.085

SMARCC2 (UniProt Q8TAQ2)
inactive: saracatinib -0.089 | sotrastaurin -0.074 | alvocidib -0.094 | Tubastatin A 0.155 | [1] -0.033 | defactinib -0.188 | rucaparib 0.09 | [2] 0.054 | encorafenib -0.01 | [3] -0.069

SMAD5 (UniProt Q99717)
inactive: saracatinib -0.002 | sotrastaurin -0.053 | alvocidib 0.027 | Tubastatin A 0.049 | [1] -0.049 | defactinib -0.01 | [2] -0.009 | [3] -0.007

Taken from the entries so far (two entries):
SP6 (UniProt Q3SY56)
inactive: saracatinib 0.046 | sotrastaurin 0.042 | alvocidib 0.049 | Tubastatin A 0.146 | [1] -0.11 | defactinib -0.121 | rucaparib 0.091 | [2] 0.073 | encorafenib -0.136 | [3] 0.14

SNRNP70 (UniProt P08621)
inactive: saracatinib -0.028 | sotrastaurin 0.093 | alvocidib 0.247 | Tubastatin A 0.039 | [1] -0.086 | defactinib 0.488 | rucaparib 0.292 | [2] -0.055 | encorafenib 0 | [3] -0.028

Continuation:

SNX16 (UniProt P57768)
inactive: saracatinib 0.052 | sotrastaurin 0.022 | alvocidib 0.087 | [1] 0.038 | defactinib -0.067 | rucaparib 0.142 | [2] 0.02 | encorafenib -0.041 | [3] -0.033

SNRPG (UniProt P62308)
inactive: saracatinib 0.123 | sotrastaurin -0.002 | alvocidib 0.011 | Tubastatin A -0.034 | [1] -0.028 | defactinib 0.127 | rucaparib 0.036 | [2] -0.059 | encorafenib -0.057 | [3] -0.001

SMAD4 (UniProt Q13485)
inactive: saracatinib 0.032 | sotrastaurin -0.012 | alvocidib -0.071 | Tubastatin A -0.01 | [1] 0.007 | defactinib -0.036 | rucaparib 0.044 | [2] -0.034 | encorafenib -0.001 | [3] 0.04

SMC2 (UniProt O95347)
inactive: saracatinib -0.02 | sotrastaurin -0.056 | alvocidib -0.016 | Tubastatin A 0.01 | [1] 0.042 | defactinib -0.04 | rucaparib 0.058 | [2] 0.024 | encorafenib 0.081 | [3] -0.012

SMCR8 (UniProt Q8TEV9)
inactive: saracatinib 0.079 | sotrastaurin -0.004 | alvocidib -0.042 | Tubastatin A -0.062 | [1] -0.055 | rucaparib -0.051 | [2] -0.031 | encorafenib -0.166

SMG9 (UniProt Q9H0W8)
inactive: saracatinib -0.061 | sotrastaurin -0.029 | alvocidib 0 | Tubastatin A 0.1 | [1] -0.086 | defactinib -0.11 | [2] 0.059 | [3] -0.005

SMG8 isoform 2 (UniProt Q8ND04)
inactive: saracatinib -0.087 | sotrastaurin 0.127 | alvocidib 0.092 | Tubastatin A 0.12 | [1] -0.188 | defactinib 0.095 | rucaparib -0.037 | [2] 0.02 | encorafenib 0.194 | [3] -0.107

SMC6 isoform 2 (UniProt Q96SB8)
inactive: saracatinib -0.003 | sotrastaurin 0.036 | alvocidib -0.05 | Tubastatin A 0.042 | [1] 0.082 | defactinib 0.013 | rucaparib -0.005 | [2] -0.058 | encorafenib 0.021 | [3] -0.02

SMIM12 (UniProt Q96EX1)
inactive: saracatinib 0.006 | sotrastaurin 0.007 | alvocidib 0.016 | Tubastatin A 0.02 | [1] 0.023 | defactinib 0.113 | rucaparib 0.024 | [2] -0.013 | encorafenib -0.057 | [3] 0.074

SMIM29 (UniProt Q86T20)
inactive: saracatinib -0.105 | sotrastaurin 0.001 | alvocidib 0.161 | [1] -0.043 | [2] -0.104

SLMAP (UniProt Q14BN4)
inactive: saracatinib -0.112 | sotrastaurin -0.078 | alvocidib 0 | Tubastatin A 0.13 | [1] -0.01 | defactinib -0.003 | rucaparib 0.112 | [2] 0.045 | encorafenib 0.028 | [3] -0.067

SP1 (UniProt P08047)
inactive: saracatinib 0.022 | sotrastaurin 0.016 | Tubastatin A -0.054 | [1] -0.015 | defactinib 0.01 | rucaparib 0.066 | [2] -0.023 | encorafenib -0.019 | [3] 0.025

SMARCA1 (UniProt P28370)
inactive: saracatinib -0.056 | sotrastaurin -0.111 | alvocidib 0 | Tubastatin A 0.14 | [1] -0.083 | defactinib -0.098 | rucaparib 0.017 | [2] 0 | encorafenib 0.147 | [3] -0.053

SOCS2 (UniProt O14508)
inactive: saracatinib 0.083 | sotrastaurin 0.024 | alvocidib 0.015 | Tubastatin A 0.006 | [1] -0.061 | defactinib -0.047 | rucaparib -0.012 | [2] -0.051 | encorafenib 0 | [3] 0.014

SMAGP (UniProt Q0VAQ4)
inactive: saracatinib 0.147 | sotrastaurin 0.256 | alvocidib -0.094 | Tubastatin A 0.152 | rucaparib 0.019 | [2] -0.132 | encorafenib -0.097

SNRPE (UniProt P62304)
inactive: saracatinib 0.023 | sotrastaurin 0.084 | alvocidib 0.095 | Tubastatin A -0.02 | [1] 0.016 | defactinib 0.087 | rucaparib 0.018 | [2] -0.035 | encorafenib -0.003 | [3] -0.012

SMG5 (UniProt Q9UPR3)
inactive: saracatinib 0.049 | sotrastaurin -0.022 | alvocidib -0.143 | Tubastatin A -0.002 | [1] -0.009 | defactinib -0.098 | [2] -0.157 | [3] -0.052

SMG6 (UniProt Q86US8)
inactive: saracatinib -0.098 | sotrastaurin -0.147 | alvocidib 0.568 | Tubastatin A 0.431 | [2] -0.211

SP100 isoform 4 (UniProt P23497)
inactive: saracatinib 0.058 | sotrastaurin -0.003 | Tubastatin A -0.015 | [1] 0.018 | defactinib -0.087 | rucaparib -0.065 | [2] -0.092 | encorafenib -0.06 | [3] 0.095

SOD3 (UniProt P08294)
inactive: saracatinib 0.036 | sotrastaurin -0.003 | alvocidib 0.072 | Tubastatin A 0 | defactinib -0.11 | [2] -0.111 | [3] -0.013

SNRNP40 (UniProt Q96DI7)
inactive: saracatinib 0.068 | sotrastaurin -0.01 | Tubastatin A -0.092 | [1] 0.045 | defactinib 0.128 | rucaparib 0.012 | [2] -0.03 | encorafenib 0.039 | [3] -0.034

SNAPIN (UniProt O95295)
inactive: saracatinib 0.01 | sotrastaurin 0.029 | alvocidib 0.001 | Tubastatin A -0.031 | [1] -0.06 | defactinib -0.031 | rucaparib -0.001 | [2] 0.017 | encorafenib -0.06 | [3] 0.023

— the supplement of paper PMC10849652
